Measurements as given in the supplement of paper PMC10849652.
The list shows a part of the results.

Protein sequences, listed by entry. Tags and fused reporters are not part of them. Lines headed by an entry give the natural chain unless they say otherwise; changes in a name come on top.
UniProt P11169: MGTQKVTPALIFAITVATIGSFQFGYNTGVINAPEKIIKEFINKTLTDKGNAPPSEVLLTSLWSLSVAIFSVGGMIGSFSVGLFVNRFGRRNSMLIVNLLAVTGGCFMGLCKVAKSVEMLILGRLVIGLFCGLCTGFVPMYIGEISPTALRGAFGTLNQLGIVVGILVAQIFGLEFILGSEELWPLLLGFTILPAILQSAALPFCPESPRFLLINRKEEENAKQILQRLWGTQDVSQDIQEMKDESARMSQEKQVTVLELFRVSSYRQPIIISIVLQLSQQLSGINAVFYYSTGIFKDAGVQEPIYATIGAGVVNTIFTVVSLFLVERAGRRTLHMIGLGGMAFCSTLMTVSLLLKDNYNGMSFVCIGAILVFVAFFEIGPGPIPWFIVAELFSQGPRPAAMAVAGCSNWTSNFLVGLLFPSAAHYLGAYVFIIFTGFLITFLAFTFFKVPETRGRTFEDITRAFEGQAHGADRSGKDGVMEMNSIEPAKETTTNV
UniProt Q86VD7: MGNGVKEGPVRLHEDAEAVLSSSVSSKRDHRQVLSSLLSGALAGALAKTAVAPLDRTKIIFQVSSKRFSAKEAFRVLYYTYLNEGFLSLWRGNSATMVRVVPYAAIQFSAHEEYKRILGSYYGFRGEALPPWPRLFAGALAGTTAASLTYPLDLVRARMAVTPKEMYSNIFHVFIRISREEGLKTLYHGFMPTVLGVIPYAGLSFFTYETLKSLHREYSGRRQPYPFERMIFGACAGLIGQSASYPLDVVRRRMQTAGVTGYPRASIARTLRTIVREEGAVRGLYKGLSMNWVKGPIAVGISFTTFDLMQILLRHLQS
UniProt Q96QD8: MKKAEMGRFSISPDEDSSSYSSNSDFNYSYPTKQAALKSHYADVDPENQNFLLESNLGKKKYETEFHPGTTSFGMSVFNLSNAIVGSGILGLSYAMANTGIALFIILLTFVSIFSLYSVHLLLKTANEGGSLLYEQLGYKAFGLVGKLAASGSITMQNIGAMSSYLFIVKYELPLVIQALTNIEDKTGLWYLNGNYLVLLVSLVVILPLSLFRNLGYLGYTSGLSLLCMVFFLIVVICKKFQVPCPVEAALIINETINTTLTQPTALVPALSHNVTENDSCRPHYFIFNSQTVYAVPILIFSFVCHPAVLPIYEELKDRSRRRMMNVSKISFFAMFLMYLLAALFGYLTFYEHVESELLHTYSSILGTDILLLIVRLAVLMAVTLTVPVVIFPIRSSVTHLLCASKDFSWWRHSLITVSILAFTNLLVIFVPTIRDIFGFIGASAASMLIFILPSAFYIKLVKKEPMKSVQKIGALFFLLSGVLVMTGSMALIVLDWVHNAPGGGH
UniProt Q15599: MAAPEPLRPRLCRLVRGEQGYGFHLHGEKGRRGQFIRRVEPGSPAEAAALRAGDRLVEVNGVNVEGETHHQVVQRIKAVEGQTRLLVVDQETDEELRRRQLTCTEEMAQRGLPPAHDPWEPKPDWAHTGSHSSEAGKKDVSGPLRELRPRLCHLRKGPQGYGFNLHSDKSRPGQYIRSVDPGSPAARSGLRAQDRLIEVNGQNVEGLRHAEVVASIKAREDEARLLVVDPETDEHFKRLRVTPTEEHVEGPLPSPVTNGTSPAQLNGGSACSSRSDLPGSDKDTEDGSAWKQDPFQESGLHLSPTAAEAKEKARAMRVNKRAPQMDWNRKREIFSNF
UniProt Q8TAD4: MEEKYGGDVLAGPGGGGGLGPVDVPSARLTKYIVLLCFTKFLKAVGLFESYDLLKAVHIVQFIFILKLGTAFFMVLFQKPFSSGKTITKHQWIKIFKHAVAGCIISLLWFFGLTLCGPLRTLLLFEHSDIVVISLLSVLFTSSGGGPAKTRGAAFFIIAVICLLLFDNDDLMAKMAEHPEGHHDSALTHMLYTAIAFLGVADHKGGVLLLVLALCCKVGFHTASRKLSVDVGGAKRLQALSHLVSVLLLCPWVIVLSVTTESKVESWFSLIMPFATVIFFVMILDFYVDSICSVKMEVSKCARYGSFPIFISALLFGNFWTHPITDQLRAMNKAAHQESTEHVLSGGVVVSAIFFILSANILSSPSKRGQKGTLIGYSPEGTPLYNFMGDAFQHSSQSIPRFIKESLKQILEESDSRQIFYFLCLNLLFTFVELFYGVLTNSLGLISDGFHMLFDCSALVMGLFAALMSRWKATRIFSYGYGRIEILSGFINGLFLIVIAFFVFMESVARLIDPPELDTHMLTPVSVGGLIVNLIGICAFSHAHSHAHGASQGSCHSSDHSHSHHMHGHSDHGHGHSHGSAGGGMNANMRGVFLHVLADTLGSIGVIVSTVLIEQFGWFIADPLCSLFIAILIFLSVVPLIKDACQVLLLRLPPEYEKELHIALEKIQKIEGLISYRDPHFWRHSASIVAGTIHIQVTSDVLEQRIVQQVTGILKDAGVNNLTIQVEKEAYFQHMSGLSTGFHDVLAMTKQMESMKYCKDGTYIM
UniProt P30825: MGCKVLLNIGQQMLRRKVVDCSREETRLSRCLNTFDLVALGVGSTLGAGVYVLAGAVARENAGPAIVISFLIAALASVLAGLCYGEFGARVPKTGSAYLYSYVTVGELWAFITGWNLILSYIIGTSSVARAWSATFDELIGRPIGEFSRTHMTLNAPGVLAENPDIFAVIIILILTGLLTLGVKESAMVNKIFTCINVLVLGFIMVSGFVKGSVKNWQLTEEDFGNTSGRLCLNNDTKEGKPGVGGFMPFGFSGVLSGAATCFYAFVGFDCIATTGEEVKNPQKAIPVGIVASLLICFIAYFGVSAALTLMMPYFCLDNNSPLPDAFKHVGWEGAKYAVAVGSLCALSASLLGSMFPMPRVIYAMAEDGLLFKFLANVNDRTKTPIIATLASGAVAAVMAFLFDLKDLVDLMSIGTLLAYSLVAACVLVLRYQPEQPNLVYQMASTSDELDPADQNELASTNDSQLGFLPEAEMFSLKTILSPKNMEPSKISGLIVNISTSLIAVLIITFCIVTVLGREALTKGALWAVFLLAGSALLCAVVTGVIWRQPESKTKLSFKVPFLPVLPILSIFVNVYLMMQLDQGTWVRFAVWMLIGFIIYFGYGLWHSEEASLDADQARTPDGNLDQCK
UniProt O15198: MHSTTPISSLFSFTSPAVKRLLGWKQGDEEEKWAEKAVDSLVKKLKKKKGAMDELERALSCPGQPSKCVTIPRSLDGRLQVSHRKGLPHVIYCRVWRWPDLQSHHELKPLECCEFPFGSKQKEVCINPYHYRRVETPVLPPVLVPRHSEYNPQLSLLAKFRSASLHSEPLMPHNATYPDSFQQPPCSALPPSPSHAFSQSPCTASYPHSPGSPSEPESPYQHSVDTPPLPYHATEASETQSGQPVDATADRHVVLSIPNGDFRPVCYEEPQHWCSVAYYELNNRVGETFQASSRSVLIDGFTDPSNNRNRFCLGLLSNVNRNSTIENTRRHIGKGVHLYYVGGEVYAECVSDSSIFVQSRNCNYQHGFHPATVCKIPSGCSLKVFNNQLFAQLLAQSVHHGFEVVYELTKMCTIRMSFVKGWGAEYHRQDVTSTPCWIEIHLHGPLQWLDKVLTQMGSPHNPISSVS
UniProt Q8IWA5: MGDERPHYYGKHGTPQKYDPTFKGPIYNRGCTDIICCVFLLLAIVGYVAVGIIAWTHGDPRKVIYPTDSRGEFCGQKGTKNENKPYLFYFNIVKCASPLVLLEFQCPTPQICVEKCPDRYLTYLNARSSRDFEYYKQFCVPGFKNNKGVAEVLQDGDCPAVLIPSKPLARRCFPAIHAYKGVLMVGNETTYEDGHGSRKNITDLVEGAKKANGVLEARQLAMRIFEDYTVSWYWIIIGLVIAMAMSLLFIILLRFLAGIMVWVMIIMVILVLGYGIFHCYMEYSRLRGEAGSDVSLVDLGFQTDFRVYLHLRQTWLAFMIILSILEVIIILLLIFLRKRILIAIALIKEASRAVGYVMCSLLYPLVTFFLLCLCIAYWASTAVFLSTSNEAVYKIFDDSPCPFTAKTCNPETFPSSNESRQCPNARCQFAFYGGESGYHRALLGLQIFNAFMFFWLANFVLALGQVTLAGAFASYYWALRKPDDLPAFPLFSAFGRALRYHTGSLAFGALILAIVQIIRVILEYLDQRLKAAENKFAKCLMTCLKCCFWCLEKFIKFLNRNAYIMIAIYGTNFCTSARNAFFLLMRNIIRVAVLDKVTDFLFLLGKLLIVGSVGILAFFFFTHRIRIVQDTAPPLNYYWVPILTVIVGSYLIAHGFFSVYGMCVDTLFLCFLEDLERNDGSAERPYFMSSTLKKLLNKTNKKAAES
UniProt Q8TB61: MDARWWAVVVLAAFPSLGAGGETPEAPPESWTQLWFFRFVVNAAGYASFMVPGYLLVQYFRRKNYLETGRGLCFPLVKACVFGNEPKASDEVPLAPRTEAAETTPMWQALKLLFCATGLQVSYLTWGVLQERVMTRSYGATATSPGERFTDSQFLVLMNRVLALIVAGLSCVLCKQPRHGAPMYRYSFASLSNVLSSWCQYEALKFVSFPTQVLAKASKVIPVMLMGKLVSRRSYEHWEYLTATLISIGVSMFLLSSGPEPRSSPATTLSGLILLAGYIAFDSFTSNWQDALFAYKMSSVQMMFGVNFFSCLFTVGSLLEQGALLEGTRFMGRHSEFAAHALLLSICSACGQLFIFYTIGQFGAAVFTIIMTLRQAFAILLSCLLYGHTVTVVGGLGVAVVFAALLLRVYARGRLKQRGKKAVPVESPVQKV
UniProt Q9H0C2: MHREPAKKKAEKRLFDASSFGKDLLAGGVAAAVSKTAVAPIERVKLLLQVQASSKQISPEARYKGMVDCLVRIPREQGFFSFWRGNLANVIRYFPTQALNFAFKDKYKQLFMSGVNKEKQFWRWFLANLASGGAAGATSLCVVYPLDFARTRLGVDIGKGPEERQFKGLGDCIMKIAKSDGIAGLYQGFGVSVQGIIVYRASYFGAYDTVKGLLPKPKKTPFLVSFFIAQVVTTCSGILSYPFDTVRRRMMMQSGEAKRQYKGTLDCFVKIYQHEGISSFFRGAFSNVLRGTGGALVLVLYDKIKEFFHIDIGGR
UniProt Q8TBP6: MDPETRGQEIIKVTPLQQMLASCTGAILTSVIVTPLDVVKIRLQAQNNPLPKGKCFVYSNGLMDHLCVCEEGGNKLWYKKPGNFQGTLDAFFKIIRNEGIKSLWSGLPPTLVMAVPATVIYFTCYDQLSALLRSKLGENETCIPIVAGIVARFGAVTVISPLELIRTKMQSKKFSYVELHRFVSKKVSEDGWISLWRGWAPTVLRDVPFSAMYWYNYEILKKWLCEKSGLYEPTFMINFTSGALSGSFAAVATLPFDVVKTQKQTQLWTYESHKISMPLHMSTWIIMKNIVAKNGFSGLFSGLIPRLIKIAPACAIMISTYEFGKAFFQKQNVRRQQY
UniProt Q9BWU0: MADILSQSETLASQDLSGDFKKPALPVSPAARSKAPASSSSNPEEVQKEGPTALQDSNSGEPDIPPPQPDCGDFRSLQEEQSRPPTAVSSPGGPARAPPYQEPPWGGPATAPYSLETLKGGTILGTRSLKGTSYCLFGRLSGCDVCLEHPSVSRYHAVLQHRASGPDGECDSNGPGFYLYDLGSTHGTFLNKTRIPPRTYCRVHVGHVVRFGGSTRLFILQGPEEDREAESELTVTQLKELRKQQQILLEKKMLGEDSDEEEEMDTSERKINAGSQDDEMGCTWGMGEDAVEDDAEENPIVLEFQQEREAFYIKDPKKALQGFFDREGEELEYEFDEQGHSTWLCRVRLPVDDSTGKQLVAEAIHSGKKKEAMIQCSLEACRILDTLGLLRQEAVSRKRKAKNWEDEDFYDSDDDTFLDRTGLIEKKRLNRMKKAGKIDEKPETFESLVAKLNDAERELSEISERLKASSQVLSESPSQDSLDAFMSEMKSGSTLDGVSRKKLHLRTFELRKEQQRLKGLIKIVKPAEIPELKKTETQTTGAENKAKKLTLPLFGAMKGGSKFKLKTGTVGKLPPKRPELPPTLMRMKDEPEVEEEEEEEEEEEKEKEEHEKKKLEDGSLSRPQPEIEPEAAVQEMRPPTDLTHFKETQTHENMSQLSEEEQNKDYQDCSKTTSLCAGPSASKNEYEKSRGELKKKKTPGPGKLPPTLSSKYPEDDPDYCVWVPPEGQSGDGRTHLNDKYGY
UniProt P11166: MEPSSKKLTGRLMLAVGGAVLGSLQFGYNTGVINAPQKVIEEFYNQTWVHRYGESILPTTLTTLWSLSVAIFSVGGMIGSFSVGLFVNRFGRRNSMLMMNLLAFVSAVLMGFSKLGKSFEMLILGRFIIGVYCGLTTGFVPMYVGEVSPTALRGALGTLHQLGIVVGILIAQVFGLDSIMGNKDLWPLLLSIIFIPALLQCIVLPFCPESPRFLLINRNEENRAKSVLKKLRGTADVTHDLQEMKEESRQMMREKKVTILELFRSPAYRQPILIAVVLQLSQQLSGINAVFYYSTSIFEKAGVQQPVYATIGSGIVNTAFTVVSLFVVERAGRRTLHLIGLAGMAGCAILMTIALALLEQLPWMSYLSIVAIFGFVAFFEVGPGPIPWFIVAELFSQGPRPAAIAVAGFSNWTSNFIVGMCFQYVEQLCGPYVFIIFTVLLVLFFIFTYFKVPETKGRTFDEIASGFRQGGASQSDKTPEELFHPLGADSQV

What was measured:
Assay in all cases: log2 fold change, soluble protein after heating vs DMSO (PISA); higher = thermal stabilisation; K562 lysate, 10 uM; active = over 0.2 and 3.5 SD of the protein, either way, in both replicates (recomputed)
vemurafenib = compound: CCCS(=O)(=O)Nc1ccc(F)c(C(=O)c2c[nH]c3ncc(-c4ccc(Cl)cc4)cc23)c1F [vemurafenib]
Method in brief: (§1)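 Following dounce homogenisation of K562 pellets in PBS pH 7.4 with 1 mM MgCl2, crude extract at 1 mg/mL protein was incubated for 30 min with 10 μM compound. Aliquots were then heated for 3 min over 48°C-58°C and pooled, NP-40 was added to 0.5% at 4°C, and soluble protein was recovered as the supernatant at 21,000xg for 90 min. Channel-sum-equalised TMTpro 16plex LC-MS/MS quantified this protein. Each value, from duplicates, is a log-two fold change in thermal stability relative to solvent controls.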

[1] = compound: CCCS(=O)(=O)Nc1ccc(F)c(C(=O)c2c[nH]c3ncc(Cl)cc23)c1F
Method in brief: as §1

barasertib = compound: CCN(CCCOc1ccc2c(Nc3cc(CC(=O)Nc4cccc(F)c4)[nH]n3)ncnc2c1)CCOP(=O)(O)O [barasertib]
Method in brief: as §1

[2] = compound: CC[C@@H]1C(=O)N(C)c2cnc(Nc3ccc(C(=O)NC4CCN(C)CC4)cc3OC)nc2N1C1CCCC1
Method in brief: as §1

volasertib = compound: CC[C@@H]1C(=O)N(C)c2cnc(Nc3ccc(C(=O)N[C@H]4CC[C@H](N5CCN(CC6CC6)CC5)CC4)cc3OC)nc2N1C(C)C [volasertib]
Method in brief: as §1

[3] = compound: CCn1c(C(=O)N(C2CC2)C2CC2)cc2c3c(ncn3C)c(Nc3cc(C)n(C)n3)nc21
Method in brief: as §1

[4] = compound: CCn1cc(-c2ccnc3[nH]c(-c4cccc(CN(C)C)c4)cc23)c(-c2ccc(NC(=O)N(C)C)cc2)n1
Method in brief: as §1

[5] = compound: CN1CCC(CNc2ccc3ncc(-c4cccc(OC(F)(F)F)c4)n3n2)CC1
Method in brief: as §1

saracatinib = compound: CN1CCN(CCOc2cc(OC3CCOCC3)c3c(Nc4c(Cl)ccc5c4OCO5)ncnc3c2)CC1 [saracatinib]
Method in brief: as §1

sotrastaurin = compound: CN1CCN(c2nc(C3=C(c4c[nH]c5ccccc45)C(=O)NC3=O)c3ccccc3n2)CC1 [sotrastaurin]
Method in brief: as §1

alvocidib = compound: CN1CC[C@H](c2c(O)cc(O)c3c(=O)cc(-c4ccccc4Cl)oc23)[C@H](O)C1 [alvocidib]
Method in brief: as §1

Tubastatin A = compound: CN1CCc2c(c3ccccc3n2Cc2ccc(C(=O)NO)cc2)C1 [Tubastatin A]
Method in brief: as §1

[6] = compound: CNC(=O)C1=CC=CC=C1NC2=NC(=NC=C2Cl)NC3=C(C=C(C=C3)N4CCOCC4)OC
Method in brief: as §1

defactinib = compound: CNC(=O)c1ccc(Nc2ncc(C(F)(F)F)c(NCc3nccnc3N(C)S(C)(=O)=O)n2)cc1 [defactinib]
Method in brief: as §1

[7] = compound: CNc1nc(-c2ccc3c(N)n[nH]c3c2)cc(N2C[C@@H](C(=O)NC3CCCCC3)CC[C@H]2C)n1
Method in brief: as §1

encorafenib = compound: COC(=O)N[C@@H](C)CNc1nccc(-c2cn(C(C)C)nc2-c2cc(Cl)cc(NS(C)(=O)=O)c2F)n1 [encorafenib]
Method in brief: as §1

[8] = compound: COC(=O)[C@H](CCSC)NC(=O)C1=C(C=C(C=C1)NC[C@H](CS)N)C2=CC=CC=C2
Method in brief: as §1

alisertib = compound: COc1cc(Nc2ncc3c(n2)-c2ccc(Cl)cc2C(c2c(F)cccc2OC)=NC3)ccc1C(=O)O [alisertib]
Method in brief: as §1

[9] = compound: COc1cc2nc(-c3cc(F)ccc3O)nc(N[C@@H]3CNC[C@H]3C(C)(C)O)c2cc1OC
Method in brief: as §1

gefitinib = compound: COc1cc2ncnc(Nc3ccc(F)c(Cl)c3)c2cc1OCCCN1CCOCC1 [gefitinib]
Method in brief: as §1

Measured: log2 fold change

SLC2A3 (UniProt P11169)
inactive: vemurafenib 0.002 | [1] -0.011 | barasertib 0.015 | [2] 0.042 | volasertib 0.005 | [3] -0.048 | [4] -0.022 | [5] 0.084 | saracatinib -0.037 | sotrastaurin 0.036 | alvocidib -0.036 | Tubastatin A 0.015 | [6] 0.013 | defactinib -0.014 | [7] 0.011 | encorafenib -0.001 | [8] -0.037 | alisertib -0.027 | [9] 0.002 | gefitinib 0.049

SLC25A42 (UniProt Q86VD7)
inactive: vemurafenib -0.072 | [1] 0.005 | barasertib 0.02 | [2] -0.013 | volasertib -0.024 | [3] -0.104 | [4] -0.014 | [5] -0.092 | saracatinib -0.12 | sotrastaurin -0.019 | alvocidib -0.026 | Tubastatin A 0.051 | [6] 0.041 | defactinib -0.048 | [7] -0.019 | encorafenib 0.099 | [8] 0 | alisertib -0.012 | [9] -0.048 | gefitinib -0.081

SLC38A2 (UniProt Q96QD8)
inactive: vemurafenib -0.086 | [1] -0.037 | barasertib 0.042 | [2] -0.028 | volasertib 0.078 | [3] 0.089 | [4] -0.078 | [5] 0.099 | saracatinib -0.056 | sotrastaurin 0.027 | alvocidib -0.034 | Tubastatin A -0.105 | [6] -0.034 | defactinib 0.021 | [7] -0.054 | encorafenib 0.119 | [8] -0.02 | alisertib -0.047 | [9] 0.009 | gefitinib 0.027

SLC9A3R2 (UniProt Q15599)
inactive: vemurafenib 0.009 | [1] 0.018 | barasertib -0.001 | [2] 0.046 | volasertib 0.022 | [3] -0.009 | [4] -0.153 | [5] 0.023 | saracatinib 0.052 | sotrastaurin 0.007 | alvocidib -0.032 | Tubastatin A -0.009 | [6] 0.027 | defactinib -0.002 | [7] -0.028 | encorafenib -0.012 | [8] -0.072 | alisertib 0.01 | [9] 0.013 | gefitinib -0.008

SLC30A5 (UniProt Q8TAD4)
inactive: vemurafenib 0.067 | [1] 0.013 | barasertib 0.017 | [2] -0.004 | volasertib 0.043 | [3] 0.045 | [4] -0.119 | [5] 0.032 | saracatinib 0.053 | sotrastaurin 0.041 | alvocidib -0.017 | Tubastatin A 0.116 | [6] -0.011 | defactinib 0.075 | [7] -0.026 | encorafenib 0.069 | [8] -0.157 | alisertib 0.071 | [9] -0.142 | gefitinib 0.001

3 successive entries out of the list so far, for reference:
SLC38A2 (UniProt Q96QD8)
inactive: vemurafenib -0.086 | [1] -0.037 | barasertib 0.042 | [2] -0.028 | volasertib 0.078 | [3] 0.089 | [4] -0.078 | [5] 0.099 | saracatinib -0.056 | sotrastaurin 0.027 | alvocidib -0.034 | Tubastatin A -0.105 | [6] -0.034 | defactinib 0.021 | [7] -0.054 | encorafenib 0.119 | [8] -0.02 | alisertib -0.047 | [9] 0.009 | gefitinib 0.027

SLC9A3R2 (UniProt Q15599)
inactive: vemurafenib 0.009 | [1] 0.018 | barasertib -0.001 | [2] 0.046 | volasertib 0.022 | [3] -0.009 | [4] -0.153 | [5] 0.023 | saracatinib 0.052 | sotrastaurin 0.007 | alvocidib -0.032 | Tubastatin A -0.009 | [6] 0.027 | defactinib -0.002 | [7] -0.028 | encorafenib -0.012 | [8] -0.072 | alisertib 0.01 | [9] 0.013 | gefitinib -0.008

SLC30A5 (UniProt Q8TAD4)
inactive: vemurafenib 0.067 | [1] 0.013 | barasertib 0.017 | [2] -0.004 | volasertib 0.043 | [3] 0.045 | [4] -0.119 | [5] 0.032 | saracatinib 0.053 | sotrastaurin 0.041 | alvocidib -0.017 | Tubastatin A 0.116 | [6] -0.011 | defactinib 0.075 | [7] -0.026 | encorafenib 0.069 | [8] -0.157 | alisertib 0.071 | [9] -0.142 | gefitinib 0.001

Going on with the list.

SLC25A14 isoform 3 (UniProt O95258)
inactive: vemurafenib 0.007 | [1] 0.06 | barasertib 0.071 | [2] -0.063 | volasertib 0.057 | [3] -0.032 | [4] -0.162 | [5] 0.101 | saracatinib -0.026 | sotrastaurin 0.019 | alvocidib 0.031 | Tubastatin A -0.01 | [6] 0.006 | defactinib -0.024 | [7] 0.057 | encorafenib 0.059 | [8] -0.069 | alisertib 0.019 | [9] 0.006 | gefitinib -0.063

SLC7A1 (UniProt P30825)
inactive: vemurafenib -0.006 | [1] 0.005 | barasertib 0.004 | [2] 0.009 | volasertib 0.038 | [3] 0.052 | [4] 0 | [5] 0.044 | saracatinib 0.022 | sotrastaurin 0.044 | alvocidib -0.013 | Tubastatin A -0.009 | [6] -0.013 | defactinib 0.002 | [7] -0.116 | encorafenib 0.049 | [8] -0.019 | alisertib -0.028 | [9] 0.017 | gefitinib 0.042

SMAD9 (UniProt O15198)
inactive: vemurafenib -0.045 | [1] -0.003 | barasertib 0.032 | [2] -0.011 | volasertib 0.024 | [3] 0.111 | [4] 0.021 | [5] 0.048 | saracatinib 0.08 | sotrastaurin 0.007 | alvocidib 0.008 | Tubastatin A -0.075 | [6] 0.089 | defactinib -0.081 | [7] 0.011 | encorafenib 0.014 | [8] -0.014 | alisertib 0.052 | [9] 0.047 | gefitinib -0.028

SLC44A2 (UniProt Q8IWA5)
inactive: vemurafenib -0.065 | [1] -0.026 | barasertib -0.027 | [2] 0.099 | volasertib 0.081 | [3] -0.226 | [4] -0.091 | [5] -0.062 | saracatinib 0.035 | sotrastaurin 0.064 | alvocidib 0.085 | Tubastatin A 0.085 | [6] -0.044 | defactinib 0.128 | [7] -0.021 | encorafenib 0.009 | [8] -0.092 | alisertib -0.039 | [9] 0.028 | gefitinib -0.047

SLC35B2 (UniProt Q8TB61)
inactive: vemurafenib 0.018 | [1] 0.03 | barasertib 0.034 | [2] 0.024 | volasertib 0.018 | [3] 0.036 | [4] -0.011 | [5] 0.006 | saracatinib -0.012 | sotrastaurin -0.03 | alvocidib 0.003 | Tubastatin A -0.002 | [6] 0.045 | defactinib -0.001 | [7] 0.062 | encorafenib 0.007 | [8] 0.044 | alisertib -0.017 | [9] 0.012 | gefitinib 0.011

SLC39A14 (UniProt Q15043)
inactive: vemurafenib 0.022 | [1] -0.012 | barasertib 0.101 | [2] 0.056 | volasertib 0.014 | [3] -0.006 | [4] 0.052 | [5] -0.007 | saracatinib 0.027 | sotrastaurin 0.053 | alvocidib 0.014 | Tubastatin A 0.035 | [6] 0.017 | defactinib -0.035 | [7] 0.006 | encorafenib 0.011 | [8] -0.04 | alisertib 0.008 | [9] 0.016 | gefitinib 0.066

SLC25A31 (UniProt Q9H0C2)
inactive: vemurafenib -0.011 | [1] 0.008 | barasertib -0.001 | [2] 0.008 | volasertib 0.026 | [3] -0.018 | [4] -0.124 | [5] 0.031 | saracatinib -0.031 | sotrastaurin -0.017 | alvocidib 0.021 | Tubastatin A 0.006 | [6] 0.018 | defactinib -0.047 | [7] -0.013 | encorafenib 0.017 | [8] 0.078 | alisertib 0.04 | [9] 0.004 | gefitinib 0.032

SLC25A40 (UniProt Q8TBP6)
inactive: vemurafenib 0.059 | [1] -0.012 | barasertib -0.023 | [2] 0.108 | volasertib 0.025 | [3] -0.047 | [4] 0.154 | [5] -0.147 | saracatinib 0.006 | sotrastaurin -0.02 | alvocidib 0.096 | Tubastatin A -0.016 | [6] 0.022 | defactinib 0.037 | [7] 0.005 | encorafenib 0.019 | [8] 0.086 | alisertib 0.049 | [9] -0.038 | gefitinib -0.001

SLC4A1AP (UniProt Q9BWU0)
inactive: vemurafenib 0.014 | [1] 0.019 | barasertib -0.026 | [2] 0.008 | volasertib 0.008 | [3] -0.027 | [4] 0.015 | [5] -0.002 | saracatinib 0.018 | sotrastaurin 0.012 | alvocidib -0.019 | Tubastatin A 0.001 | [6] 0.005 | defactinib -0.022 | [7] 0.006 | encorafenib 0.002 | [8] -0.025 | alisertib -0.007 | [9] -0.008 | gefitinib 0.008

SLC2A1 (UniProt P11166)
inactive: vemurafenib 0.022 | [1] -0.018 | barasertib -0.064 | [2] -0.023 | volasertib 0.024 | [3] -0.025 | [4] 0.045 | [5] 0.055 | saracatinib 0.022 | sotrastaurin 0.007 | alvocidib 0.035 | Tubastatin A 0.017 | [6] -0.021 | defactinib 0.03 | [7] -0.059 | encorafenib -0.001 | [8] -0.008 | alisertib -0.002 | [9] 0.034 | gefitinib 0.046
